The exact form of at least one protein or probe is not confirmed. Where cells or extracts were used, other partners may take part.
Target: KLF2 (UniProt Q60843)
Assay: EMSA
Details: 10 mM Tris, 50 mM KCl, 1 mM DTT, 10 mM ZnCl2, pH and binding temperature not stated, antibody preincubation 4 C 30 min

Protein sequences, listed by entry. Tags and fused reporters are not part of them. Lines headed by an entry give the natural chain unless they say otherwise; changes in a name come on top.
UniProt Q60843: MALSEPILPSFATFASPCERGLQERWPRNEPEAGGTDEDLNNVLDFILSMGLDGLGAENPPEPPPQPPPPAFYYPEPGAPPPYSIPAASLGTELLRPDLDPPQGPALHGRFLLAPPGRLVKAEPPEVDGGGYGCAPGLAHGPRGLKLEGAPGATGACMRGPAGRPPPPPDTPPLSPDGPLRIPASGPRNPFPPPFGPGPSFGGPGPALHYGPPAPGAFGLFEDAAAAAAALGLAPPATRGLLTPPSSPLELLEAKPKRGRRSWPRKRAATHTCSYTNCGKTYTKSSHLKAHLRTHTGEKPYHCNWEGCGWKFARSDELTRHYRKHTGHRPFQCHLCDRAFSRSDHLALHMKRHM

Sequence | binding result (two shifted bands, protein in an …) | binding result (one shifted band, protein in an extract)
GAGGGGAAAGGTAGGAGTTGGAGGGGAAAGGTAGGAGTTG (double strand) [SCAP probe 20*2] | binds | 
GGCGGAGCGGGAGGGGAAAGGTAGGAGTTGAGAGGTGAAG (double strand) [SCAP probe 40*1] |  | binds

Source: paper PMC10805670
